# Experimental data as given in PubChem BioAssay AID504467 (National Center for Advancing Translational Sciences (NCATS), 2011).
# Hit rate of the full screen: of about 330,000 compounds, about 7,700 (2.3%) were called active. Inconclusive results, whose numbers are uncertain, are shown with a selection of clear calls. Calls follow the shape of the dose curve; as a rule, active = well fitted inhibition curve with a large enough effect; inconclusive = small, poorly fitted or top-dose-only effect, or effect the other way; inactive = flat fitted curve, though single readings scatter. A potency beside an inconclusive call is a rough fit, not a confirmed value.
# Assay: qHTS screen for small molecules that inhibit ELG1-dependent DNA repair in human embryonic kidney (HEK293T) cells expressing luciferase-tagged ELG1; also: nearly all actives have a fitted effect of over 55% in size
# Details: HEK293T ELG1-luciferase reporter, luminescence, 16 h, DNA damage induced by 5-fluorouridine; series mostly up to 46.1 µM
# Summary of the method: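 Overnight (16 hr) co-exposure of 2,000 cells/well to 5-fluorouridine and compound at 37 °C preceded detection. Luciferase was quantified via ONE-Glo luminescence; loss of signal denotes inhibition.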
# Potency is read from the fitted curve at half-maximal effect.
row,SMILES,Potency
1,COc1ccc(N(C(=O)Nc2ccc(Cl)cc2)C2=NCCC2)cc1,"inconclusive: 0.013 µM [inhibitor, partial curve, poor fit]"
2,COc1ccc(Cl)cc1NC(=O)CN(C)C(=O)c1cc2c(s1)CCC(C)C2 (stereo unspecified),inactive
3,Cc1ccc(NC(=O)c2cc(S(=O)(=O)N3CCCCC3)cs2)cc1,"inconclusive: 20.6 µM [inhibitor, partial curve]"
4,C[C@@H]1CN([C@H](C)CO)C(=O)c2cc(NC(=O)C3CCCCC3)ccc2O[C@@H]1CN(C)Cc1ccncc1,inactive
5,CN(C)/C=C/c1c([N+](=O)[O-])c2ccc(O)cc2n1-c1ccccc1,active: 7.3 µM
6,Cc1ccc(NS(=O)(=O)c2ccc(-n3cccn3)cc2)cc1C,inactive
7,CCOC(=O)C1CCCN(S(=O)(=O)Cc2ccc(Cl)cc2)C1 (stereo unspecified),inactive
8,CC(C)(C)c1csc(N/N=C/c2cccnc2)n1,"inconclusive: 2.91 µM [activator, partial curve]"
9,Cc1c(C(=O)N/N=C/c2ccncc2)no[n+]1[O-],"inconclusive: 20.6 µM [activator, partial curve, poor fit]"
10,CC1CN(CC(O)COc2ccccc2C(C)(C)C)CC(C)O1 (stereo unspecified),"inconclusive: 1.16 µM [inhibitor, single point]"
11,COc1cc(CN2CC(=O)N(c3cc(Cl)ccc3C)C2=S)cc(OC)c1OC,"inconclusive: 29.1 µM [inhibitor, single point]"
12,CCOC(=O)c1cc2c(nc1C)-c1cc(Cl)cc(Cl)c1OC2O (stereo unspecified),"inconclusive: 32.6 µM [activator, partial curve, poor fit]"
13,CCOC(=O)c1sc(NC(=O)CSc2nnc(Cc3ccccc3)o2)c(C(=O)OCC)c1C,"inconclusive: 20.6 µM [inhibitor, partial curve, poor fit]"
14,O=C(CC1(O)C(=O)N(CCc2ccccc2)c2ccccc21)c1ccco1 (stereo unspecified),inactive
15,COc1cc2c(C(=O)N3CCN(c4cccc(Cl)c4)CC3)cn(C)c(=O)c2cc1OC,"inconclusive: 23.1 µM [inhibitor, single point]"
16,CC1CCCN(C(=O)Nc2ccc(Br)cc2Cl)C1 (stereo unspecified),"inconclusive: 18.3 µM [activator, partial curve]"
17,CC(C)NC(=O)c1ccc(COc2cc(Cl)ccc2Cl)o1,"inconclusive: 0.103 µM [inhibitor, full curve, poor fit]"
18,O=C(NC(=S)N(CCO)Cc1ccccc1)c1ccc(F)cc1Cl,inactive
19,COc1ccc(C2=NN(C(=O)CN3CCOCC3)C(c3nc4ccccc4[nH]3)C2)cc1 (stereo unspecified),"inconclusive: 20.6 µM [activator, partial curve]"
20,Cc1nccn1CC(O)Cn1c2ccccc2c2ccccc21 (stereo unspecified),"inconclusive: 29.1 µM [activator, single point]"
21,O=C(N/N=C/c1cccs1)C(=O)Nc1cccc(Cl)c1,"inconclusive: 10.3 µM [activator, partial curve, poor fit]"
22,CCN(CC)c1nc(N2CCN(CCO)CC2)nc2ccccc12,inactive
23,Cc1ccc(-c2cc(C(=O)NCCCN3CCOCC3)no2)cc1,inactive
24,CCn1cc(C(=O)OCC(=O)c2cc(C)n(-c3ccccc3F)c2C)c(=O)c2ccc(C)nc21,"inconclusive: 14.6 µM [inhibitor, partial curve, poor fit]"

# Some of these compounds in order of molecular weight, largest number first.
row,SMILES,Potency
4,C[C@@H]1CN([C@H](C)CO)C(=O)c2cc(NC(=O)C3CCCCC3)ccc2O[C@@H]1CN(C)Cc1ccncc1,inactive
13,CCOC(=O)c1sc(NC(=O)CSc2nnc(Cc3ccccc3)o2)c(C(=O)OCC)c1C,"inconclusive: 20.6 µM [inhibitor, partial curve, poor fit]"
24,CCn1cc(C(=O)OCC(=O)c2cc(C)n(-c3ccccc3F)c2C)c(=O)c2ccc(C)nc21,"inconclusive: 14.6 µM [inhibitor, partial curve, poor fit]"
19,COc1ccc(C2=NN(C(=O)CN3CCOCC3)C(c3nc4ccccc4[nH]3)C2)cc1 (stereo unspecified),"inconclusive: 20.6 µM [activator, partial curve]"
3,Cc1ccc(NC(=O)c2cc(S(=O)(=O)N3CCCCC3)cs2)cc1,"inconclusive: 20.6 µM [inhibitor, partial curve]"
14,O=C(CC1(O)C(=O)N(CCc2ccccc2)c2ccccc21)c1ccco1 (stereo unspecified),inactive
12,CCOC(=O)c1cc2c(nc1C)-c1cc(Cl)cc(Cl)c1OC2O (stereo unspecified),"inconclusive: 32.6 µM [activator, partial curve, poor fit]"
7,CCOC(=O)C1CCCN(S(=O)(=O)Cc2ccc(Cl)cc2)C1 (stereo unspecified),inactive
16,CC1CCCN(C(=O)Nc2ccc(Br)cc2Cl)C1 (stereo unspecified),"inconclusive: 18.3 µM [activator, partial curve]"
22,CCN(CC)c1nc(N2CCN(CCO)CC2)nc2ccccc12,inactive
17,CC(C)NC(=O)c1ccc(COc2cc(Cl)ccc2Cl)o1,"inconclusive: 0.103 µM [inhibitor, full curve, poor fit]"
6,Cc1ccc(NS(=O)(=O)c2ccc(-n3cccn3)cc2)cc1C,inactive
10,CC1CN(CC(O)COc2ccccc2C(C)(C)C)CC(C)O1 (stereo unspecified),"inconclusive: 1.16 µM [inhibitor, single point]"
21,O=C(N/N=C/c1cccs1)C(=O)Nc1cccc(Cl)c1,"inconclusive: 10.3 µM [activator, partial curve, poor fit]"
20,Cc1nccn1CC(O)Cn1c2ccccc2c2ccccc21 (stereo unspecified),"inconclusive: 29.1 µM [activator, single point]"
8,CC(C)(C)c1csc(N/N=C/c2cccnc2)n1,"inconclusive: 2.91 µM [activator, partial curve]"
9,Cc1c(C(=O)N/N=C/c2ccncc2)no[n+]1[O-],"inconclusive: 20.6 µM [activator, partial curve, poor fit]"

# Next records

row,SMILES,Potency
1,O=c1c(Cl)c(NCCCO)cnn1-c1nc2ccccc2[nH]1,"inconclusive: 4.61 µM [activator, partial curve]"
2,COc1ccc2nc(SCC(=O)NC(C)(C)C)[nH]c2c1,inactive
3,Cc1ccsc1C(=O)NNC(=S)NCC(C)C,inactive
4,COC(=O)c1cc(CNC(=O)c2ccc(N3CCCC3)c([N+](=O)[O-])c2)ccc1OC,"inconclusive: 20.6 µM [inhibitor, single point]"
5,O=C(c1cc(COc2cccc(C(F)(F)F)c2)on1)N1C[C@@H]2CCC[C@H]1C2,"inconclusive: 16.4 µM [activator, partial curve]"
6,Cc1ccc(C(=O)COc2ccccc2C(=O)Nc2ccccc2)cc1,inactive
7,CC(C)(CNC(=O)c1cccc(S(=O)(=O)Nc2ccc(Br)cc2)c1)N1CCOCC1,"inconclusive: 5.17 µM [inhibitor, single point]"
8,Cc1ccc(-c2noc(CN3CCOCC3)n2)cc1,"inconclusive: 11.2 µM [activator, partial curve, poor fit]"
9,O=C1CN(C(=O)CN2C(=O)NC(c3ccccc3)(c3ccccc3)C2=O)c2ccccc2N1,"inconclusive: 18.3 µM [activator, partial curve, poor fit]"
10,COCCNC(=O)CSc1nc2ccc(N3CCOCC3)cc2c(=O)n1CCc1ccccc1,inactive
11,Cc1cccn2c(=O)c3cc(C(=O)NCC4CCCO4)c(=N)n(Cc4ccc(F)cc4)c3nc12 (stereo unspecified),inactive
12,O=[N+]([O-])c1ccc(COn2nnc3ccccc32)cc1,"inconclusive: 18.3 µM [activator, partial curve]"
13,COc1cc2c(cc1OC)CN(c1ccc(C(F)(F)F)cn1)CC2,"inconclusive: 29.1 µM [activator, partial curve, poor fit]"
14,C/C(=N/NC(=O)c1cc2ccccc2cc1O)C1C(=O)c2ccccc2C1=O,"inconclusive: 18.4 µM [activator, partial curve]"
15,COc1ccc(CNC(=O)COC(=O)CCCOc2ccc(Cl)cc2Cl)cc1,"inconclusive: 16.4 µM [activator, single point]"
16,Cn1nnnc1SCC(=O)Nc1cc(S(=O)(=O)N2CCCCC2)ccc1Cl,inactive
17,Cc1ccc(-c2nnn(CC(=O)N(c3ccccc3)C(C(=O)NCC3CCCO3)c3cccs3)n2)o1 (stereo unspecified),inactive
18,COc1ccc(/C=N/Nc2cc(OC)ncn2)cc1,"inconclusive: 1.16 µM [activator, full curve]"
19,COc1ccc(C(=O)Nn2c(SCC(=O)NCc3ccco3)nc3ccccc3c2=O)cc1,"inconclusive: 0.058 µM [activator, full curve]"
20,COc1cccc(N2CCN(CC(=O)Nc3nc4c(s3)CC(C)CC4)CC2)c1 (stereo unspecified),"inconclusive: 5.17 µM [inhibitor, single point]"
21,CC(C)CNC(=O)c1cc([N+](=O)[O-])ccc1N1CCOCC1,inactive
22,CCN1CCN(C(=O)NCc2ccccc2)CC1,inactive
23,CCOc1ccc2nc3c(cc2c1)CN(CCOC)C(=NCCOC)S3,"inconclusive: 23.1 µM [inhibitor, partial curve]"
24,C[C@@H]1CN([C@@H](C)CO)C(=O)c2cccc(NC(=O)C3CCCCC3)c2O[C@@H]1CN(C)Cc1ccc(Cl)c(Cl)c1,"inconclusive: 25.9 µM [inhibitor, partial curve, poor fit]"

row,SMILES,Potency
1,Cc1cc(C)nc(NC2=NCC(=O)N2c2ccccc2Br)n1,inactive
2,Cc1nnc(SCCCn2c(N3CCN(c4ccccc4)CC3)nc3c2c(=O)[nH]c(=O)n3C)s1,"inconclusive: 10 µM [inhibitor, partial curve, poor fit]"
3,O=C1CCCc2oc3ccc(O)cc3c21,"inconclusive: 16.4 µM [activator, single point]"
4,COc1ccc(/C=C/C(=O)OCC(=O)Nc2c(C)cccc2C)cc1,inactive
5,CC(C)CSc1nnc2c(n1)[nH]c1ccccc12,"inconclusive: 0.58 µM [activator, full curve]"
6,CC(=O)c1cccc(NC(=O)COc2ccc3oc(=O)cc(C)c3c2)c1,"inconclusive: 1.03 µM [inhibitor, partial curve, poor fit]"
7,Cc1ccccc1N1CC(C(=O)N2CCCCCC2)CC1=O (stereo unspecified),inactive
8,CCCC(CCC)c1nc2ccncc2[nH]1,"inconclusive: 23.1 µM [inhibitor, single point]"
9,COc1ccc(Cl)cc1NC(=O)C(OC)c1ccccc1 (stereo unspecified),inactive
10,Cc1cc(NC(=O)CSCC(=O)Nc2cc(C(F)(F)F)ccc2N2CCOCC2)no1,inactive
11,Nc1nc(-c2ccc(Br)cc2)cs1,"inconclusive: 18.4 µM [activator, partial curve]"
12,C=C(C)COc1ccc(-c2n[nH]c(C)c2-c2ccccc2OC)c(O)c1,"inconclusive: 16.4 µM [inhibitor, partial curve]"
13,Cc1ccc(NC(=O)COC(=O)c2ccc(CN3CCCC3=O)cc2)c(Cl)c1,inactive
14,Cc1ccc(NC(=O)c2ccc(COc3ccccc3)o2)nc1,"inconclusive: 18.3 µM [activator, single point]"
15,CCOC(CNC(=O)c1cccn2c(=O)c3cc(Cl)ccc3nc12)OCC,active: 23.1 µM
16,O=C(Nc1ccccc1C(=O)Nc1ccc(Br)cn1)c1ccccc1Cl,"inconclusive: 23.1 µM [inhibitor, single point]"
17,COc1ccccc1C(=O)C1CCCN(C(=O)c2cc(CC(C)C)nc(C)n2)C1 (stereo unspecified),inactive
18,CCc1nnc(NC(=O)c2ccc(S(=O)(=O)N(CCOC)CCOC)cc2)o1,inactive
19,O=C(Cc1ccccn1)Nc1ccccc1,"inconclusive: 20.6 µM [activator, partial curve, poor fit]"
20,Cc1csc(NC(=O)Cc2c[nH]c3ccccc23)n1,"inconclusive: 18.4 µM [activator, single point]"
21,CCNC(=O)c1ccccc1SCC(=O)Nc1ccc(F)cc1,"inconclusive: 9.2 µM [inhibitor, partial curve, poor fit]"
22,O=C(OCc1ccccc1F)c1ccc2c(c1)-c1ccccc1C2=O,"inconclusive: 9.2 µM [activator, partial curve]"
23,CCCn1nnc(NC(=O)c2cccc(OCC)c2)n1,"inconclusive: 11.2 µM [activator, partial curve, poor fit]"
